# Source: publication PMC4614683
# Sequences of proteins named here, by UniProt entry; tags and fusion partners are left off.
# UniProt P72714: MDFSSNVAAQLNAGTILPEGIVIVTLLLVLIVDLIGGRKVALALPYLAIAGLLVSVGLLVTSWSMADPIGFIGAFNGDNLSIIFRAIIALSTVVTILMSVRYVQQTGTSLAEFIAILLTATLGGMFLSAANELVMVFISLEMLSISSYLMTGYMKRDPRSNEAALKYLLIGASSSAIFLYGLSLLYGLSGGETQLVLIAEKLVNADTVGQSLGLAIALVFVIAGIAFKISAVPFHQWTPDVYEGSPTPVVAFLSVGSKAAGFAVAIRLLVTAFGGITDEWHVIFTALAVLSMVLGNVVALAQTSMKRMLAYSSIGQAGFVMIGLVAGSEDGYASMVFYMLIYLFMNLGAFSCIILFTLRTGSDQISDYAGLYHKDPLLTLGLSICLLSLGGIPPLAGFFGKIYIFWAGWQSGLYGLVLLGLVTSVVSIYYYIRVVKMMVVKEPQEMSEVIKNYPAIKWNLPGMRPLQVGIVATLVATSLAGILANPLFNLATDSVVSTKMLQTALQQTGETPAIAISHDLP
# UniProt P26522: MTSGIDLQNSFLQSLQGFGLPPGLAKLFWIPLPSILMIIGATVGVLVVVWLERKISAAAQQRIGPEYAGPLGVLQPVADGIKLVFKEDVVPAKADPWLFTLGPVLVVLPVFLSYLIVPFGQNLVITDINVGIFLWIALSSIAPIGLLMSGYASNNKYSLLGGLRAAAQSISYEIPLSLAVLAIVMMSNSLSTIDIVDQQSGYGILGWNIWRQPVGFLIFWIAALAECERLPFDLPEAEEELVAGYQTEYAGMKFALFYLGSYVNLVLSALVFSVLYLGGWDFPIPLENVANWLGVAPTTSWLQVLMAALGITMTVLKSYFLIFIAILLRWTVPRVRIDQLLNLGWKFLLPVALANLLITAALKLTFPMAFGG
# UniProt P26525: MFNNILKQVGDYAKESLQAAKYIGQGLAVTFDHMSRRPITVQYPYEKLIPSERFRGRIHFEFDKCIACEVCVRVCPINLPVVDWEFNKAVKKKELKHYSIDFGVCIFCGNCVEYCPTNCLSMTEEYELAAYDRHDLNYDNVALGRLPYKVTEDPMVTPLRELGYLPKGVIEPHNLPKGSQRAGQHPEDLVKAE
# Results are given in words; binding and its absence hold for the method and conditions named. Some binding calls cover weakened binding; strength is not graded here.
# How the values were obtained:
# Experiment in all cases: two-hybrid; bait, prey and reporter vector pSH18-34 (lacZ) co-transformed into yeast strain EGY48; dropped onto X-gal medium, induction plate 30 °C for 22 h; blue precipitate (β-galactosidase) as read-out; at least six independent experiments
# [1] = biological target: NdhB (Sll0223) (Synechocystis sp. strain PCC 6803) (UniProt P72714)
# [2] = biological target: T1, NdhO (Ssl1690) (Synechocystis sp. strain PCC 6803) (UniProt P74771)
# T1 sequence: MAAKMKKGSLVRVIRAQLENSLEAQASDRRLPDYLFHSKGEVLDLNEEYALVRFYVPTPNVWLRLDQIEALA
# [3] = biological target: T2, NdhH (Slr0261) (Synechocystis sp. strain PCC 6803) (UniProt P27724)
# T2 sequence: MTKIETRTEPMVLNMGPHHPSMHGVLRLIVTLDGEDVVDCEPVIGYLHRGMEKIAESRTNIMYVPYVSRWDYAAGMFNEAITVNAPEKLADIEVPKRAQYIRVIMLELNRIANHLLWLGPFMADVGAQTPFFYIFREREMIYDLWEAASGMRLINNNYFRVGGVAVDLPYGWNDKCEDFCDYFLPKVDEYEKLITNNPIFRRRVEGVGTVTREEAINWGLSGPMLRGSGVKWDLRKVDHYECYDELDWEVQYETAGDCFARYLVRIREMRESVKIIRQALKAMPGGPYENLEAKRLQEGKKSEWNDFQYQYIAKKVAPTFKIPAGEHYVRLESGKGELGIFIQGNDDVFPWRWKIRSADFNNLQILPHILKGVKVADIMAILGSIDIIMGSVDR
molecule,measurement,setting,value
NdhA (Sll0519) (from UniProt P26522 1-372),binding,[1],binds
NdhI (Sll0520) (from UniProt P26525 1-193),binding,[2],binds
"NdhK (Slr1280) (protein, UniProt P19050 1-248) MSPNPANPTDLERVATAKILNPASRSQVTQDLSENVILTTVDDLYNWAKLSSLWPLLYGTACCFIEFAALIGSRFDFDRFGLVPRSSPRQADLIITAGTITMKMAPALVRLYEEMPEPKYVIAMGACTITGGMFSSDSTTAVRGVDKLIPVDVYIPGCPPRPEAIFDAIIKLRKKVANESIQERAITQQTHRYYSTSHQMKVVAPILDGKYLQQGTRSAPPRELQEAMGMPVPPALTTSQQKEQLNRG",binding,[3],binds
